Data taken from PubChem BioAssay AID504834 (National Center for Advancing Translational Sciences (NCATS), 2011).
Hit rate of the full screen: of about 320,000 compounds, about 22,000 (6.9%) were called active. The shares of active, inactive and inconclusive entries below differ from those in the screen. Calls come from the whole dose curve; as a rule, active = well fitted inhibition curve with a large enough effect; inconclusive = small, poorly fitted or top-dose-only effect, or another doubt; inactive = no such curve, though single readings can be large or run the other way. Potencies of inconclusive entries are doubtful fits and often do not repeat.

Assay: Primary qHTS for delayed death inhibitors of the malarial parasite plastid, 96 hour incubation
Details: P. falciparum luciferase reporter growth; series mostly up to 28.7 µM
Summary of the method: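 Infected RBCs, 2% Hct / 0.05% parasitemia final; luciferase-reporter P. falciparum; cpd 96 h, 37 C, 5% CO2; luciferase detection reagent; luminescence.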
Potency is the fitted concentration of half-maximal effect.

| SMILES | Potency |
| --- | --- |
| CCN(CC(=O)NCc1ccc(Cl)cc1)C(=O)/C=C/c1ccc(C#N)cc1 | inactive |
| CCc1ccc(C(=O)C[n+]2cccc3cc(OC)ccc32)cc1 | inactive |
| CCNc1oc(-c2ccccc2F)nc1S(=O)(=O)c1ccccc1 | inconclusive: 11.7 µM [inhibitor, single point] |
| CCOc1ccc(/C=C/C(=O)N(CC)CC(=O)Nc2ccc3c(c2)OCCO3)cc1OCC | inconclusive: 20.8 µM [inhibitor, partial curve, poor fit] |
| N#Cc1cn(-c2ccccc2)nc1C(=O)c1ccccc1 | inconclusive: 13.1 µM [inhibitor, single point] |
| COc1ccccc1CN1C[C@@H]2C[C@@H](C3=Cc4cc(Cl)ccc4OC3)N3CCC[C@@]23C1=O | active: 13.1 µM |
| Cc1ccc(C(=O)NCC(c2cccs2)N(C)C)cc1S(=O)(=O)N1CCOCC1 (stereo not given) | inconclusive: 18.5 µM [inhibitor, single point] |
| COCCn1c(SCC(=O)NC2CCCCC2C)nc2ccccc2c1=O (stereo not given) | inactive |
| CCOC(=O)c1c(CSC(=N)N)n(C)c2cc(Br)c(OC(C)=O)cc12 | inactive |
| CN(Cc1ccccc1)Cc1ccccc1F | inconclusive: 13.1 µM [inhibitor, partial curve] |
| COc1ccccc1-c1csc(N2CCC(C(N)=O)CC2)n1 | inconclusive: 16.5 µM [inhibitor, partial curve, poor fit] |
| O=C(N1CCOCC1)N1CCOCC1 | inconclusive: 5.86 µM [inhibitor, partial curve, poor fit] |
| O=c1cc(CO)oc(C(Nc2ccccn2)c2ccc(F)cc2)c1O (stereo not given) | inactive |
| COc1cccc(C(C(=O)NC2CCCC2)N(C(=O)c2ccco2)c2ccccc2F)c1OC (stereo not given) | inactive |
| CCCCCC(=O)N/N=C(\C)c1ccc(N2CCCCC2)cc1 | inconclusive: 0.294 µM [inhibitor, full curve, poor fit] |
| O=C(CCNC(=O)C1CCN(S(=O)(=O)c2ccccc2)CC1)NCCc1ccc(Cl)cc1 | inconclusive: 18.5 µM [inhibitor, single point] |
| COc1cccc(C2CC(c3ccc(C)cc3)=NN2C(=O)c2ccccc2F)c1OC (stereo not given) | active: 4.15 µM |
| S=C(NCCN1CCOCC1)Nc1ccc(Nc2ccccc2)cc1 | inconclusive: 9.28 µM [inhibitor, partial curve] |
| COc1ccc(NC(=O)CN(C)CC(=O)Nc2cccc(S(=O)(=O)N(C)c3ccccc3)c2)cc1 | inconclusive: 10.4 µM [inhibitor, partial curve] |
| CC(C)(C)NC(=O)CN(Cc1cccs1)C(=O)CCC(=O)Nc1nccs1 | inactive |

As entered above:
For Potency, COc1ccc(NC(=O)CN(C)CC(=O)Nc2cccc(S(=O)(=O)N(C)c3ccccc3)c2)cc1 is entered as inconclusive: 10.4 µM [inhibitor, partial curve]
For Potency, O=c1cc(CO)oc(C(Nc2ccccn2)c2ccc(F)cc2)c1O (stereo not given) is entered as inactive
